These are yes or no findings as the source states them, for the method shown. Some results given as binding are weak or reduced against the parent protein; the word gives no strength.

The experiment has as its target T1, recombinant CDH17-hFc (human) (UniProt Q12864).
T1 sequence (looked up): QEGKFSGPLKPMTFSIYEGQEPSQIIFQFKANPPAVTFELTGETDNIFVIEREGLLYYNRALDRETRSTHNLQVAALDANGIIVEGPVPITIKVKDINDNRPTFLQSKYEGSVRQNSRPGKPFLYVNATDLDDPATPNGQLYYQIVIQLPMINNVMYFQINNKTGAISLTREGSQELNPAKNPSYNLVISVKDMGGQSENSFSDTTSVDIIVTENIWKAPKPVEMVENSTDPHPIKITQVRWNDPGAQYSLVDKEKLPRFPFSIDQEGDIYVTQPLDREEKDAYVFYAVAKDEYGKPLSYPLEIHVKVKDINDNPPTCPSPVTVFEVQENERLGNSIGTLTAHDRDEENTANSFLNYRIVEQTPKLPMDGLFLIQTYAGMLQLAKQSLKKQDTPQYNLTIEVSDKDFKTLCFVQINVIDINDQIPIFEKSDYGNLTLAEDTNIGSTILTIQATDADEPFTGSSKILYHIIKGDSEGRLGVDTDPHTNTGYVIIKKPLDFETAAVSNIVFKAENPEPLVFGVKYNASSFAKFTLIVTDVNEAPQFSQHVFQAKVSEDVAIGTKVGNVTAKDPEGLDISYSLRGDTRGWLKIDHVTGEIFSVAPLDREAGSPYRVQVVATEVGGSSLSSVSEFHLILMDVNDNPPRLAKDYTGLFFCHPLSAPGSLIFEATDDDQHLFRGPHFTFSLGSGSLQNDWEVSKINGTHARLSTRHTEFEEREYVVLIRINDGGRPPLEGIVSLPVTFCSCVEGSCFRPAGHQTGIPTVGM
Put plainly: domain-mapping ELISA; affinity by OCTET and ELISA (FIG. 6b, 6c).

B1: mLic3 (antibody, V domains shown)
VH: EVQLVESGGGLVKPGGSLKLSCAASGFSFSDYYMYWVRQAPEKRLEWVASISFDGTYTYYTDRVKGRFTISRDNAKNNLYLQMSSLKSEDTAMYYCARDRPAWFPYWGQGTLVTVSA
VL: DVLMTQIPLSLTVSLGDQASISCRSSQSIVHSNGNTYLEWYLQRPGQSPKLLIYKVSNRFSGVPDRFSGSGSGTDFTLKISRVEAEDLGVYYCFQGSHVPLTFGAGTKLELK
Turning to B1, the binding entry is on record as “binds”.

B2: m7C5 (antibody, V domains shown)
VH: QVQLQQSGAELARPGASVKLSCKASGYTFTSYGLSWVKQRTGQGLEWIGEIFPRSGNSYYNEKFKGKAALTADKSSSTAYMQLSSLTSEDSAVYFCARHYYSSLYYAMDYWGQGTSVTVSS
VL: DIQVTQSPASLSASVGESVSITCGTNENLYGALNWYQRKQGKSPQLLIYGATNLADGMSSRFSGSGSGRQYSLKISSLHPDDVATYYCQNVLSTPRTFGGGTKLEIK
In the case of B2, the binding entry is listed as “binds”.

Values taken from US20250035633A1.
